Consider seven molecules from PMC6876773.

Read-outs that look alike come from different tables or passages of the source. These are yes or no findings as the source states them, for the method shown. For some assays here: In cells and extracts the contact can be indirect. Some results given as binding are weak or reduced against the parent protein; the word gives no strength. For some assays here: Sequences can lack the tags named with a protein.

Assay [1] addresses T1, Smc5-TAP (budding yeast) (UniProt Q08204).
T1 sequence: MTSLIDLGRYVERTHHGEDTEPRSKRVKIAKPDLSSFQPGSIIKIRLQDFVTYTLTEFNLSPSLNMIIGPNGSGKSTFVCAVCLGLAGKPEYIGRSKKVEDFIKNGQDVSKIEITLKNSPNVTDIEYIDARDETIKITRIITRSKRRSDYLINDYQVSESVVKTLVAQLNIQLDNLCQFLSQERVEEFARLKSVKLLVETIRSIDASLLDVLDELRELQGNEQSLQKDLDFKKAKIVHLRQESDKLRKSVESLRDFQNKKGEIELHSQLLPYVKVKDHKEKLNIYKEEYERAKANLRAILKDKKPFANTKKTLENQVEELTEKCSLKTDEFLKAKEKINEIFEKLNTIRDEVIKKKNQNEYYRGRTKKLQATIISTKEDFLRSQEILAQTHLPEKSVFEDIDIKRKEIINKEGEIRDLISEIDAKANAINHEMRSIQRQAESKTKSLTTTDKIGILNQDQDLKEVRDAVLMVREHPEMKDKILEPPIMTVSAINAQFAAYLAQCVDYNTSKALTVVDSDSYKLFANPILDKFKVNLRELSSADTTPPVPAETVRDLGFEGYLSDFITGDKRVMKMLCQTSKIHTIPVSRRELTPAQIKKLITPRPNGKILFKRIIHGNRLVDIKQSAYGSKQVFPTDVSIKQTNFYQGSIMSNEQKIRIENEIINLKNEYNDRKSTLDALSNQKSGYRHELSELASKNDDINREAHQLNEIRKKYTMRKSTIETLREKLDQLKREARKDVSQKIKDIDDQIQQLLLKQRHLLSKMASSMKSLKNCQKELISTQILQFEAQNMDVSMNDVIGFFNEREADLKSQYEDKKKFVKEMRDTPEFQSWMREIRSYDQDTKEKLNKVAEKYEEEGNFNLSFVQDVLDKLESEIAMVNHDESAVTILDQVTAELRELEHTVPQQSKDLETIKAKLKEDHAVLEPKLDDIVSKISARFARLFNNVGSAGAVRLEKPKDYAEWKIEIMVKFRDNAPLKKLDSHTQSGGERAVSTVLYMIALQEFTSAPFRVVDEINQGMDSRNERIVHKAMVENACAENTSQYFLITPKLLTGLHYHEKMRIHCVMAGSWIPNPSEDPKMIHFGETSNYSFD
In words: co-IP; TAP- or FLAG-tagged bait immunoprecipitated from extracts of ground budding yeast cells (G1, S phase 30 min, or 0.2 M HU 90 min; also in checkpoint mutants sml1Δ rad53Δ, sml1Δ mec1Δ, mrc1Δ, tof1Δ, ctf18Δ, dcc1Δ and in mms21-CH); washes from 100 to 700 mM potassium acetate; immunoblotting. On the technique in general: In western blotting, separated proteins are transferred to a membrane and probed.

Assay [2] deals with T2, Dpb2-TAP (budding yeast) (UniProt P24482).
T2 sequence: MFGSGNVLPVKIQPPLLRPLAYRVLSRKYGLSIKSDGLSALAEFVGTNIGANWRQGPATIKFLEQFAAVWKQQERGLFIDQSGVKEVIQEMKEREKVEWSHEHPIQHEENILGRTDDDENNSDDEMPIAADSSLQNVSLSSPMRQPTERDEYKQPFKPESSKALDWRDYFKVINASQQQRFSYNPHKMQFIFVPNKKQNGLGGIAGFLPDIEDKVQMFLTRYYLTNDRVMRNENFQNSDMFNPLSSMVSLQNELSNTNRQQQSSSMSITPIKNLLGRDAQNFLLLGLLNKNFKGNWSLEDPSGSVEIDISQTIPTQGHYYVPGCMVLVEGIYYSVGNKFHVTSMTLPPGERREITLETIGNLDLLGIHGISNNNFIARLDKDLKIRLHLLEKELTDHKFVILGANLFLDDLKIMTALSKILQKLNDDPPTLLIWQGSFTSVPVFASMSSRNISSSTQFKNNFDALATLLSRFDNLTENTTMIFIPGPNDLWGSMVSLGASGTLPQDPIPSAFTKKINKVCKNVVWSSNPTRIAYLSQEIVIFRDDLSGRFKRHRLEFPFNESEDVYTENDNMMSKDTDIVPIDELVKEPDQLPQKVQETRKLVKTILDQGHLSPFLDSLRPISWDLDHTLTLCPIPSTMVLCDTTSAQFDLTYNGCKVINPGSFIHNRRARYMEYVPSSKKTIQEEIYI
The description is as above.

The target of assay [3] is T3, Mms21-5FLAG (budding yeast) (UniProt P38632).
T3 sequence: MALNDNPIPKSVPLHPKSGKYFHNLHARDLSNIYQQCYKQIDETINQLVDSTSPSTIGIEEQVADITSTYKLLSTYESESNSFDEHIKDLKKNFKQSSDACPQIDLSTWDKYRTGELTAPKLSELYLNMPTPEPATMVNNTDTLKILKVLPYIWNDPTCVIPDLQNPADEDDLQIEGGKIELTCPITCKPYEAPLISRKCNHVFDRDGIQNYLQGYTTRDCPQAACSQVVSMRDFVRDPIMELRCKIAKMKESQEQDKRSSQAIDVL
Described as above.

Assay [4] addresses T2, Dpb2-TAP (budding yeast). The assay is described as above. The source holds these as a separate data set.
Assay [5] addresses T4, Dpb2 (two-hybrid) (budding yeast) (UniProt P24482).
T4 sequence: T2 sequence
In words: two-hybrid; Gal4-based, pGADT7 and pGBKT7 derivatives in strain PJ69-4A; growth on SC lacking Trp, Leu, His (weak) or Trp, Leu, His, Ade (strong selection); serial dilutions.

In the case of “DNA polymerase epsilon (Pol ε) (from UniProt P21951 1-2222; P24482 1-689; P27344 1-201; Q04603 1-196) (complex)”, the binding result in assay [1] was “binds”.

In the case of “Pol2 with mutations in the SIM motif (pol2-sim), from the endogenous POL2 locus (from UniProt P21951 1-2222)”, in assay [2], the binding entry is on record as “binds”.

As to “Pol2, the catalytic subunit of DNA polymerase ε (from UniProt P21951 1-2222)”, the binding result in assay [2] and in assay [3] was “binds” throughout.

B1: FLAG-tagged version of Smc5 (protein, UniProt Q08204 1-1093)
chain: T1 sequence
For the molecule B1, in assay [4], the binding result was “binds”.

B2: Pol2 (1128–2222), C-terminal half (domain or fragment, UniProt P21951 1128-2222)
chain: LDPSLEDLDIRTIIDWGYYRERLGSAIQKIITIPAALQGVSNPVPRVEHPDWLKRKIATKEDKFKQTSLTKFFSKTKNVPTMGKIKDIEDLFEPTVEEDNAKIKIARTTKKKAVSKRKRNQLTNEEDPLVLPSEIPSMDEDYVGWLNYQKIKWKIQARDRKRRDQLFGNTNSSRERSALGSMIRKQAESYANSTWEVLQYKDSGEPGVLEVFVTINGKVQNITFHIPKTIYMKFKSQTMPLQKIKNCLIEKSSASLPNNPKTSNPAGGQLFKITLPESVFLEEKENCTSIFNDENVLGVFEGTITPHQRAIMDLGASVTFRSKAMGALGKGIQQGFEMKDLSMAENERYLSGFSMDIGYLLHFPTSIGYEFFSLFKSWGDTITILVLKPSNQAQEINASSLGQIYKQMFEKKKGKIETYSYLVDIKEDINFEFVYFTDISKLYRRLSQETTKLKEERGLQFLLLLQSPFITKLLGTIRLLNQMPIVKLSLNEVLLPQLNWQPTLLKKLVNHVLSSGSWISHLIKLSQYSNIPICNLRLDSMDYIIDVLYARKLKKENIVLWWNEKAPLPDHGGIQNDFDLNTSWIMNDSEFPKINNSGVYDNVVLDVGVDNLTVNTILTSALINDAEGSDLVNNNMGIDDKDAVINSPSEFVHDAFSNDALNVLRGMLKEWWDEALKENSTADLLVNSLASWVQNPNAKLFDGLLRYHVHNLTKKALLQLVNEFSALGSTIVYADRNQILIKTNKYSPENCYAYSQYMMKAVRTNPMFSYLDLNIKRYWDLLIWMDKFNFSGLACIEIEEKENQDYTAVSQWQLKKFLSPIYQPEFEDWMMIILDSMLKTKQSYLKLNSGTQRPTQIVNVKKQDKEDSVENSLNGFSHLFSKPLMKRVKKLFKNQQEFILDPQYEADYVIPVLPGSHLNVKNPLLELVKSLCHVMLLSKSTILEIRTLRKELLKIFELREFAKVAEFKDPSLSLVVPDFLCEYCFFISDIDFCKAAPESIFSCVRCHKAFNQVLLQEHLIQKLRSDIESYLIQDLRCSRCHKVKRDYMSAHCPCAGAWEGTLPRESIVQKLNVFKQVAKYYGFDILLSCIADLTI
Regarding B2, in assay [5], the binding result was “binds”.

B3: Wild type Pol2 fragment 2103–2222 (domain or fragment, UniProt P21951 2103-2222)
chain: VPDFLCEYCFFISDIDFCKAAPESIFSCVRCHKAFNQVLLQEHLIQKLRSDIESYLIQDLRCSRCHKVKRDYMSAHCPCAGAWEGTLPRESIVQKLNVFKQVAKYYGFDILLSCIADLTI
For B3, the binding entry in assay [5] is reported as “binds”.

B4: Mms21-5FLAG (protein, UniProt P38632 1-267)
chain: T3 sequence
Turning to B4, the binding entry in assay [4] is on record as “binds”.
